# Data from PubChem BioAssay AID624297 (National Center for Advancing Translational Sciences (NCATS), 2012).
# Screen size: about 340,000 compounds; about 6,200 (1.8%) were called active. The shares of active, inactive and inconclusive entries below differ from those in the screen. The call rests on the fitted dose curve; in most records, active means well fitted activation curve with a large enough effect; inconclusive means small, poorly fitted or top-dose-only effect; inactive means no such curve, though single readings can be large or run the other way. Where the call is inconclusive, the potency comes from a doubtful curve fit.
# Assay: A quantitative high throughput screen for small molecules that induce DNA re-replication in SW480 colon adenocarcinoma cells. Further: nearly all actives have a fitted effect of over 55% in size. On re-replication activation: % of control where 0% means no effect.
# Conditions: Hoechst DNA content imaging, 48 h; re-replication activation: at 46.1 µM (top of the series) unless noted
# In short: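 250 cells/well; 23 nL cpd via pin tool; 48 hr, 37 C, 5% CO2; Hoechst 40 min; imager read of total nuclear intensity, ex 405/em 500-530 nm.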
# Potency means the concentration at half of the fitted maximal effect.
Compound,Potency,re-replication activation
Cc1nn2c(c1-c1ccc(Cl)cc1)N=C(c1ccco1)CC2c1ccccc1 (stereo not drawn),"inconclusive: 29.1 µM [activator, single point]",–
CCOC(=O)c1ccccc1OCc1cc(/C=N/n2cnnc2)ccc1OC,"inconclusive: 20.6 µM [activator, single point]",–
Cc1ccc2c(CC(=O)Nc3ccc(N4CCN(C)CC4)cc3C)coc2c1,"inconclusive: 25.9 µM [activator, single point]",–
O=C(NN=Cc1ccc(F)cc1)C1CC1,inactive,–
CC(=O)CCc1ccc(OCCCCN2CCC(Cc3ccccc3)CC2)cc1,"inconclusive: 29.1 µM [activator, partial curve, poor fit]",–
Cc1cccc(NC(=O)c2cc(-c3cc(C)cc(C)c3O)n[nH]2)c1,"inconclusive: 1.3 µM [activator, full curve]",–
COc1ccc(OCC(=O)N2CCCC(CO)(CCOc3ccccc3)C2)cc1 (stereo not drawn),inactive,–
CCCCn1c2ccc(F)cc2c2nnc(NN)nc21,"inconclusive: 16.4 µM [activator, single point]",–
COCCNC(=O)c1cccc(OC2CCN(Cc3ccc(OC(F)F)cc3)CC2)c1,inactive,–
CCN(CC)c1ccc(NC(=O)CSc2nc(C3CC3)nc3ccccc23)cc1C,active: 8.2 µM,–
O=c1[nH]c2cc3c(cc2cc1CN(Cc1cccs1)Cc1nnnn1Cc1ccco1)OCCO3,"inconclusive: 20.6 µM [activator, partial curve, poor fit]",–
CS(=O)(=O)Nc1ccccc1C(=O)OCC(=O)NC1CC1,inactive,–
Cc1cc(Cl)c(OCCOCCN2CCC(C)CC2)c(Br)c1,"inconclusive: 29.1 µM [activator, single point]",–
CN(C)S(=O)(=O)c1ccc2[nH]cc(/C=C/c3nc4ccccc4c(=O)n3-c3ccccc3)c2c1,active: 3.26 µM,–
CCOC(=O)CNC(=O)CSc1ncnc2c1cnn2-c1ccc(Cl)cc1,inactive,–
CCc1nnc(NC(=O)c2ccc(C)o2)s1,inactive,–
CCOC(=O)c1c(C2CC2)csc1NC(=O)COC(=O)c1cnc(Cl)c(Cl)c1,"inconclusive: 29.1 µM [activator, single point]",–
CC(=O)C1=C(O)C(=O)N(c2ccccn2)C1c1ccc(C)cc1 (stereo not drawn),inactive,–
C[C@@H](c1ccccc1)N1Cc2ccccc2Oc2cc(Br)ccc2S1(=O)=O,"inconclusive: 29.1 µM [activator, single point]",–
COc1ccc(-c2noc(-c3ccoc3C)n2)cc1,"inconclusive: 0.82 µM [activator, full curve, poor fit]",–
O=C(OCC(=O)c1ccc[nH]1)c1ccccc1,inactive,–
Cc1ccc2c(c1)N=C(c1ccccc1)CC(C(Cl)Cl)=N2,"inconclusive: 9.2 µM [activator, partial curve]",–
COC(=O)c1ccc(CN2CCCC(CO)(Cc3ccc(F)cc3F)C2)cc1 (stereo not drawn),inactive,–
O=C(CSc1ccc(Cl)cc1)Nc1nnc(-c2ccco2)o1,"inconclusive: 0.231 µM [activator, full curve, poor fit]",–
C=CCc1cccc2cc(C(=O)N3CCN(C(=O)c4ccco4)CC3)c(=O)oc12,"inconclusive: 1.46 µM [activator, full curve]",–

# Five records drawn at random from those above, as already listed:
Compound,Potency,re-replication activation
Cc1cccc(NC(=O)c2cc(-c3cc(C)cc(C)c3O)n[nH]2)c1,"inconclusive: 1.3 µM [activator, full curve]",–
CC(=O)CCc1ccc(OCCCCN2CCC(Cc3ccccc3)CC2)cc1,"inconclusive: 29.1 µM [activator, partial curve, poor fit]",–
CN(C)S(=O)(=O)c1ccc2[nH]cc(/C=C/c3nc4ccccc4c(=O)n3-c3ccccc3)c2c1,active: 3.26 µM,–
CCc1nnc(NC(=O)c2ccc(C)o2)s1,inactive,–
CCOC(=O)c1ccccc1OCc1cc(/C=N/n2cnnc2)ccc1OC,"inconclusive: 20.6 µM [activator, single point]",–

# The list goes on:

Compound,Potency,re-replication activation
CCCc1nc2ccccc2c(=O)n1/N=C/c1ccc(O)cc1,inactive,–
CCOc1ccc(S(=O)(=O)N2CCC(C(=O)Nc3cc(S(C)(=O)=O)ccc3Cl)CC2)cc1,"inconclusive: 6.51 µM [activator, partial curve, poor fit]",–
NC1=NC(=O)/C(=C/c2cccc(-c3ccc(S(N)(=O)=O)cc3)c2)S1,"inconclusive: 0.116 µM [activator, full curve, poor fit]",–
CC(C)(C)c1ccccc1OCC(=O)NCCC(=O)O,inactive,–
Nc1nc(COC(=O)C2CC(=O)N(Cc3ccccc3Cl)C2)nc(Nc2ccccc2)n1 (stereo not drawn),"inconclusive: 8.2 µM [activator, partial curve, poor fit]",–
COc1ccc(NC(=O)c2c(NC(=O)CNCC(C)C)sc3c2CCC3)c(OC)c1,"inconclusive: 1.03 µM [activator, full curve, poor fit]",–
N#C/C(=C\c1coc2ccc(O)cc2c1=O)C(=O)Nc1nc2ccccc2s1,"inconclusive: 6.51 µM [activator, single point]",–
NC(=O)N=Nc1c(O)n(Cc2ccccc2)c2ccc(Br)cc12,"inconclusive: 32.6 µM [activator, partial curve, poor fit]",–
O=C(COC(=O)c1ccc2ccccc2n1)Nc1ccccc1F,inactive,–
CCOc1cc2c(cc1O)C(=NOC)CC1C2CCC2(C)C(O)CCC12 (stereo not drawn),active: 5.8 µM,–
N#CCn1cc(/C=N/NC(=O)c2cc3c(ccc4ccccc43)o2)c2ccccc21,"inconclusive: 18.4 µM [activator, single point]",–
O=[N+]([O-])c1ccc(N/N=C/c2c[nH]c3ccccc23)c(S(=O)(=O)Nc2ccc(Cl)cc2)c1,active: 20.6 µM,–
Cc1cncn1CCc1nc2c3ccccc3nc(SCC(=O)Nc3cccc(Cl)c3)n2n1,"inconclusive: 29.1 µM [activator, single point]",–
CC(=O)OC(c1nc2ccccc2c(=O)n1C1CC2(OC1=O)c1ccccc1N1C(=O)C(C)(C)N(O)C12)C(C)C (stereo not drawn),"inconclusive: 18.4 µM [activator, single point]",–
COc1cc(C2Nc3ccc4ccccc4c3C3=C2C(=O)CC(C)(C)C3)ccc1OCC(=O)O (stereo not drawn),"inconclusive: 29.1 µM [activator, single point]",–
COc1ccc(C2=Nn3c(nnc3-c3ccccc3OC)SC2)cc1OC,active: 0.366 µM,–
CCOC(=O)C1(CCc2ccccc2)CCN(C(=O)c2ccoc2)CC1,"inconclusive: 29.1 µM [activator, single point]",–
CC(Nc1nc(-c2ccc(F)cc2)cs1)c1nc2cc(Cl)c(N3CCCCC3)cc2n1CCOCCO (stereo not drawn),inactive,–
Cc1cccc(NC(=O)CCS(=O)(=O)c2ccccc2)c1,"inconclusive: 0.366 µM [activator, full curve, poor fit]",–
N#Cc1cccc(C#N)c1N1CCC(C#N)CC1,inactive,–
C/C(CC(=O)Nc1cc(Cl)ccc1Cl)=N\NC(N)=S,inactive,–
CCOc1cccc(CNc2ccc(O)cc2)c1OCc1ccc(Cl)cc1Cl,"inconclusive: 25.9 µM [activator, single point]",–
Cc1nc2sc3c(NCc4ccco4)ncnc3c2c2c1COC(C)(C)C2,"inconclusive: 29.1 µM [activator, single point]",–
Cc1cccc2sc(NC(=O)CN(C)S(=O)(=O)c3ccc(Br)s3)nc12,"inconclusive: 29.1 µM [activator, single point]",–
O=S(=O)(c1ccc(Br)cc1)N1CCN(Cc2ccco2)CC1,inactive,–

Compound,Potency,re-replication activation
CCC(C)C(N)C(=O)N1CCCC1C(=O)NC(C(=O)O)C(C)CC (stereo not drawn),inactive,–
S=C1CC2CCCC(C2)N1 (stereo not drawn),inactive,–
CS(=O)(=O)CC(=O)Nc1ccc2nc3n(c(=O)c2c1)CCCCC3,inactive,–
COc1ccccc1C(=O)NCC(=O)NCc1cc(=O)n(C)c(=O)n1C,inactive,–
COc1ccc(N2CCN(CC(=O)c3ccc(O)c(C)c3O)CC2)cc1,"inconclusive: 29.1 µM [activator, single point]",–
O=C(/C=C/c1cccnc1)c1ccc([N+](=O)[O-])cc1,"inconclusive: 29.1 µM [activator, single point]",–
CC(C)n1c(=N)c(C(=O)NCCc2ccccc2)cc2c(=O)n3ccccc3nc21,active: 23.1 µM,–
COc1ccc(OCC(=O)Nc2cc(OC)cc(OC)c2)cc1,"inconclusive: 29.1 µM [activator, single point]",–
OCC1(CO)CCCC(CO)(CO)C1O,inactive,–
C=C[C@@H]1c2c(F)cccc2N(S(=O)(=O)c2ccc(C)cc2)[C@H](c2ccc(OC(C)=O)cc2)C1(C#N)C#N,"inconclusive: 20.6 µM [activator, single point]",–
CCN(C(=O)c1cc2c(=O)[nH]c3ccc(C)cc3c2s1)c1cccc(C)c1,"inconclusive: 29.1 µM [activator, single point]",–
COC(=O)CS(=O)(=O)c1nnc([C@H](Cc2ccccc2)NC(=O)OC(C)(C)C)o1,"inconclusive: 11.6 µM [activator, single point]",–
COc1ccccc1NC(=O)C1CC(C(C)C)OC1=O (stereo not drawn),inactive,–
C/C(=N\NC(=O)c1ccn(C)n1)c1ccc(NC(=O)C2CCC2)cc1,inactive,–
Cc1cc(C)nc(SCC(=O)Nc2ccc(S(=O)(=O)N3CCCCC3)cc2)n1,"inconclusive: 29.1 µM [activator, single point]",–
CC1=C(C)/C(=N/OC(=O)c2cccc([N+](=O)[O-])c2)C=CC1=O,active: 8.2 µM,–
CCOC(=O)c1ccc(NC(=S)NNC(C)(C)C)cc1,"inconclusive: 18.4 µM [activator, single point]",–
CCOC(=O)N1C(=O)[C@@](CC)(c2ccccc2)N1C(=O)OCC,"inconclusive: 16.4 µM [activator, single point]",–
CCOC(=O)C1=C(O)c2ccccc2C(=O)/C1=C\c1ccc(CC)cc1,active: 6.51 µM,–
CC(=O)c1ccc(-c2cccs2)s1,"inconclusive: 14.6 µM [activator, single point]",–
Cc1cc(C)c2[nH]c(C)c(CN3CCCCCC3)c(=O)c2c1,"inconclusive: 32.6 µM [activator, single point]",–
Cc1ccc(CCc2nnc(SCC(=O)Nc3ccccc3Cl)n2-c2ccccc2)o1,–,inconclusive: 76.8% [activator]
Oc1ccc(N=Cc2ccc(O)c(O)c2)cc1,"inconclusive: 18.4 µM [activator, single point]",–
